Some peptides are written in HELM: one residue between dots, names in brackets for other building blocks, links after the first $.
Test: general procedure: Fmoc solid-phase peptide synthesis; 2-chlorotrityl resin (polystyrene crosslinked with 1-5% divinylbenzene)
Conditions: whole synthesis, HPLC-MS

Substance	final HPLC purity [%]
PEPTIDE1{[HOVal].C.Y.[Dap].E.[D-Dab].T.W.S.[tBuGly].C.[Throl]}|PEPTIDE2{[Dab].T.[Dab].[Dab].[Dab].[dL].L.[Dab].[Dab].T}$PEPTIDE1,PEPTIDE1,2:R3-11:R3|PEPTIDE1,PEPTIDE2,5:R3-1:R1|PEPTIDE2,PEPTIDE2,4:R3-10:R2$$$V2.0	95
PEPTIDE1{[HOVal].C.Y.[Dap].E.[D-Dab].[Hse].W.S.[tBuGly].C.[Throl]}|PEPTIDE2{[Dab].T.[Dab].[Dab].[Dab].[dL].L.[Dab].[Dab].T}$PEPTIDE1,PEPTIDE1,2:R3-11:R3|PEPTIDE1,PEPTIDE2,5:R3-1:R1|PEPTIDE2,PEPTIDE2,4:R3-10:R2$$$V2.0	86
PEPTIDE1{[HOVal].[Orn].Y.S.E.[D-Dab].[Hse].W.S.[tBuGly].[dT]}|PEPTIDE2{[Dab].T.[Dap].[Dab].[Dab].[dL].L.[Dab].[Dab].T}$PEPTIDE1,PEPTIDE1,2:R3-11:R2|PEPTIDE1,PEPTIDE2,5:R3-1:R1|PEPTIDE2,PEPTIDE2,4:R3-10:R2$$$V2.0	70
PEPTIDE1{[HOVal].[Pen].Y.[Dab].E.[D-Dab].[Hse].W.S.[tBuGly].C.[Throl]}|PEPTIDE2{[Dab].T.[Dab].[Dab].[Dab].[dL].L.[Dab].[Dab].T}$PEPTIDE1,PEPTIDE1,2:R3-11:R3|PEPTIDE1,PEPTIDE2,5:R3-1:R1|PEPTIDE2,PEPTIDE2,4:R3-10:R2$$$V2.0	78
PEPTIDE1{[Hiv].C.Y.[Dab].E.[D-Dab].S.W.S.V.C.S.[am]}|PEPTIDE2{[Dab].T.[Dap].[Dab].[Dab].[dL].L.[Dab].[Dab].T}$PEPTIDE1,PEPTIDE1,2:R3-11:R3|PEPTIDE1,PEPTIDE2,5:R3-1:R1|PEPTIDE2,PEPTIDE2,4:R3-10:R2$$$V2.0	95
PEPTIDE1{[Hiv].C.Y.[Dab].E.[D-Dab].[Hse].W.S.[tBuGly].C.[Throl]}|PEPTIDE2{[D-Dab].[Dab].[Dab].[dL].L.[Dab].[Dab].L}$PEPTIDE1,PEPTIDE1,2:R3-11:R3|PEPTIDE1,PEPTIDE2,5:R3-1:R1|PEPTIDE2,PEPTIDE2,2:R3-8:R2$$$V2.0	85
PEPTIDE1{[Hiv].C.Y.[Dap].E.[D-Dab].[Dab].W.S.[tBuGly].C.[Throl]}|PEPTIDE2{[Dab].T.[Dap].[Dab].[Dab].[dL].L.[Dab].[Dab].T}$PEPTIDE1,PEPTIDE1,2:R3-11:R3|PEPTIDE1,PEPTIDE2,5:R3-1:R1|PEPTIDE2,PEPTIDE2,4:R3-10:R2$$$V2.0	95
PEPTIDE1{[Hiv].C.Y.[Dap].E.[D-Dab].[Hse].W.S.[tBuGly].C.[Throl]}|PEPTIDE2{[Dab].T.[Dap].[Dab].[Dab].[dL].L.[Dab].[Dab].T}$PEPTIDE1,PEPTIDE1,2:R3-11:R3|PEPTIDE1,PEPTIDE2,5:R3-1:R1|PEPTIDE2,PEPTIDE2,4:R3-10:R2$$$V2.0	95
PEPTIDE1{[NMeVal].C.Y.[Dab].E.[D-Dab].[Hse].W.[Hse].V.C.S.[am]}|PEPTIDE2{[Dab].T.[Dab].[Dab].[Dab].[dL].L.[Dab].[Dab].T}$PEPTIDE1,PEPTIDE1,2:R3-11:R3|PEPTIDE1,PEPTIDE2,5:R3-1:R1|PEPTIDE2,PEPTIDE2,4:R3-10:R2$$$V2.0	90
PEPTIDE1{[NMeVal].C.Y.[Dab].E.[D-Dab].[Hse].W.[Hse].[tBuGly].C.S.[am]}|PEPTIDE2{[Dab].T.[Dab].[Dab].[Dab].[dL].L.[Dab].[Dab].T}$PEPTIDE1,PEPTIDE1,2:R3-11:R3|PEPTIDE1,PEPTIDE2,5:R3-1:R1|PEPTIDE2,PEPTIDE2,4:R3-10:R2$$$V2.0	84
PEPTIDE1{[NMeVal].C.Y.[Dap].E.[D-Dab].[Dab].W.S.[tBuGly].C.[am]}|PEPTIDE2{[Dab].T.[Dap].[Dab].[Dab].[dL].L.[Dab].[Dab].T}$PEPTIDE1,PEPTIDE1,2:R3-11:R3|PEPTIDE1,PEPTIDE2,5:R3-1:R1|PEPTIDE2,PEPTIDE2,4:R3-10:R2$$$V2.0	88
PEPTIDE1{[ac].F.[Orn].Y.[Dap].E.[D-Dab].[Hse].W.S.[tBuGly].[dT]}|PEPTIDE2{[Dab].T.[Dap].[Dab].[Dab].[dL].L.[Dab].[Dab].T}$PEPTIDE1,PEPTIDE1,3:R3-12:R2|PEPTIDE1,PEPTIDE2,6:R3-1:R1|PEPTIDE2,PEPTIDE2,4:R3-10:R2$$$V2.0	80
PEPTIDE1{[ac].I.[Orn].Y.[Dap].E.[D-Dab].[Hse].W.S.[tBuGly].[dT]}|PEPTIDE2{[Dab].T.[Dap].[Dab].[Dab].[dL].L.[Dab].[Dab].T}$PEPTIDE1,PEPTIDE1,3:R3-12:R2|PEPTIDE1,PEPTIDE2,6:R3-1:R1|PEPTIDE2,PEPTIDE2,4:R3-10:R2$$$V2.0	73
PEPTIDE1{[ac].L.[Orn].Y.[Dap].E.[D-Dab].[Hse].W.S.[tBuGly].[dT]}|PEPTIDE2{[Dab].T.[Dap].[Dab].[Dab].[dL].L.[Dab].[Dab].T}$PEPTIDE1,PEPTIDE1,3:R3-12:R2|PEPTIDE1,PEPTIDE2,6:R3-1:R1|PEPTIDE2,PEPTIDE2,4:R3-10:R2$$$V2.0	81
PEPTIDE1{[ac].S.C.Y.[Dab].E.[D-Dab].[Hse].W.S.V.C.V.[am]}|PEPTIDE2{[Dab].T.[Dab].[Dab].[Dab].[dL].L.[Dab].[Dab].T}$PEPTIDE1,PEPTIDE1,3:R3-12:R3|PEPTIDE1,PEPTIDE2,6:R3-1:R1|PEPTIDE2,PEPTIDE2,4:R3-10:R2$$$V2.0	88
PEPTIDE1{[ac].V.C.S.[Dab].E.[D-Dab].[Hse].W.S.Y.C.V.[am]}|PEPTIDE2{[Dab].T.[Dab].[Dab].[Dab].[dL].L.[Dab].[Dab].T}$PEPTIDE1,PEPTIDE1,3:R3-12:R3|PEPTIDE1,PEPTIDE2,6:R3-1:R1|PEPTIDE2,PEPTIDE2,4:R3-10:R2$$$V2.0	71
PEPTIDE1{[ac].V.C.S.[Dab].E.[D-Dab].[Hse].W.S.[tBuGly].C.Y.[Glyol]}|PEPTIDE2{[Dab].T.[Dab].[Dab].[Dab].[dL].L.[Dab].[Dab].T}$PEPTIDE1,PEPTIDE1,3:R3-12:R3|PEPTIDE1,PEPTIDE2,6:R3-1:R1|PEPTIDE2,PEPTIDE2,4:R3-10:R2$$$V2.0	92
PEPTIDE1{[ac].V.C.V.[Dab].E.[D-Dab].[Hse].W.S.Y.C.S.[am]}|PEPTIDE2{[Dab].T.[Dab].[Dab].[Dab].[dL].L.[Dab].[Dab].T}$PEPTIDE1,PEPTIDE1,3:R3-12:R3|PEPTIDE1,PEPTIDE2,6:R3-1:R1|PEPTIDE2,PEPTIDE2,4:R3-10:R2$$$V2.0	84
PEPTIDE1{[ac].V.C.Y.S.E.[D-Dab].T.W.S.[tBuGly].C.S.[am]}|PEPTIDE2{[Dab].T.[Dab].[Dab].[Dab].[dL].L.[Dab].[Dab].T}$PEPTIDE1,PEPTIDE1,3:R3-12:R3|PEPTIDE1,PEPTIDE2,6:R3-1:R1|PEPTIDE2,PEPTIDE2,4:R3-10:R2$$$V2.0	93
PEPTIDE1{[ac].V.C.Y.[Dab].E.[D-Dab].T.W.S.[tBuGly].C.S}|PEPTIDE2{[Dab].T.[Dab].[Dab].[Dab].[dL].L.[Dab].[Dab].T}$PEPTIDE1,PEPTIDE1,3:R3-12:R3|PEPTIDE1,PEPTIDE2,6:R3-1:R1|PEPTIDE2,PEPTIDE2,4:R3-10:R2$$$V2.0	81
PEPTIDE1{[ac].V.C.Y.[Dap].E.[D-Dab].S.W.S.[tBuGly].C.S.[am]}|PEPTIDE2{[Dab].T.[Dap].[Dab].[Dab].[dL].L.[Dab].[Dab].T}$PEPTIDE1,PEPTIDE1,3:R3-12:R3|PEPTIDE1,PEPTIDE2,6:R3-1:R1|PEPTIDE2,PEPTIDE2,4:R3-10:R2$$$V2.0	95
PEPTIDE1{[ac].V.C.Y.[Dap].E.[D-Dab].S.W.S.[tBuGly].C.[Throl]}|PEPTIDE2{[Dab].T.[Dap].[Dab].[Dab].[dL].L.[Dab].[Dab].T}$PEPTIDE1,PEPTIDE1,3:R3-12:R3|PEPTIDE1,PEPTIDE2,6:R3-1:R1|PEPTIDE2,PEPTIDE2,4:R3-10:R2$$$V2.0	87
PEPTIDE1{[ac].V.[Dab].Y.[Dap].E.[D-Dab].[Hse].W.S.[tBuGly].[dT]}|PEPTIDE2{[Dab].T.[Dap].[Dab].[Dab].[dL].L.[Dab].[Dab].T}$PEPTIDE1,PEPTIDE1,3:R3-12:R2|PEPTIDE1,PEPTIDE2,6:R3-1:R1|PEPTIDE2,PEPTIDE2,4:R3-10:R2$$$V2.0	77
PEPTIDE1{[ac].V.[Hcy].Y.[Dap].E.[D-Dab].S.W.S.[tBuGly].C.S.[am]}|PEPTIDE2{[Dab].T.[Dap].[Dab].[Dab].[dL].L.[Dab].[Dab].T}$PEPTIDE1,PEPTIDE1,3:R3-12:R3|PEPTIDE1,PEPTIDE2,6:R3-1:R1|PEPTIDE2,PEPTIDE2,4:R3-10:R2$$$V2.0	81
PEPTIDE1{[ac].V.[Orn].Y.S.E.[D-Dab].S.W.S.[tBuGly].[dT]}|PEPTIDE2{[Dab].T.[Dap].[Dab].[Dab].[dL].L.[Dab].[Dab].T}$PEPTIDE1,PEPTIDE1,3:R3-12:R2|PEPTIDE1,PEPTIDE2,6:R3-1:R1|PEPTIDE2,PEPTIDE2,4:R3-10:R2$$$V2.0	71
PEPTIDE1{[ac].V.[Orn].Y.S.E.[D-Dab].[Dab].W.S.[tBuGly].[dT]}|PEPTIDE2{[Dab].T.[Dap].[Dab].[Dab].[dL].L.[Dab].[Dab].T}$PEPTIDE1,PEPTIDE1,3:R3-12:R2|PEPTIDE1,PEPTIDE2,6:R3-1:R1|PEPTIDE2,PEPTIDE2,4:R3-10:R2$$$V2.0	84
PEPTIDE1{[ac].V.[Orn].Y.S.E.[D-Dab].[Hse].W.S.[tBuGly].[D-Dab]}|PEPTIDE2{[Dab].T.[Dap].[Dab].[Dab].[dL].L.[Dab].[Dab].T}$PEPTIDE1,PEPTIDE1,3:R3-12:R2|PEPTIDE1,PEPTIDE2,6:R3-1:R1|PEPTIDE2,PEPTIDE2,4:R3-10:R2$$$V2.0	77
PEPTIDE1{[ac].V.[Orn].Y.S.E.[D-Dab].[Hse].W.S.[tBuGly].[D-Hse]}|PEPTIDE2{[Dab].T.[Dap].[Dab].[Dab].[dL].L.[Dab].[Dab].T}$PEPTIDE1,PEPTIDE1,3:R3-12:R2|PEPTIDE1,PEPTIDE2,6:R3-1:R1|PEPTIDE2,PEPTIDE2,4:R3-10:R2$$$V2.0	75
PEPTIDE1{[ac].V.[Orn].Y.S.E.[D-Dab].[Hse].W.S.[tBuGly].[D-Orn]}|PEPTIDE2{[Dab].T.[Dap].[Dab].[Dab].[dL].L.[Dab].[Dab].T}$PEPTIDE1,PEPTIDE1,3:R3-12:R2|PEPTIDE1,PEPTIDE2,6:R3-1:R1|PEPTIDE2,PEPTIDE2,4:R3-10:R2$$$V2.0	75
